1 substance from patent publication US20170016004A1, “DDX5 AND ASSOCIATED NON-CODING RNAs AND MODULATION OF TH17 EFFECTOR FUNCTION” (priority 2015, published 2017) can be followed below.

By UniProt entry, the sequences of proteins in these tests, tags left out. Where a name states a change or a piece, a line headed by the entry shows the natural chain unless it says otherwise. Chains listed by the source or under a name are the forms on record and can include a tag or linker.
UniProt Q61656: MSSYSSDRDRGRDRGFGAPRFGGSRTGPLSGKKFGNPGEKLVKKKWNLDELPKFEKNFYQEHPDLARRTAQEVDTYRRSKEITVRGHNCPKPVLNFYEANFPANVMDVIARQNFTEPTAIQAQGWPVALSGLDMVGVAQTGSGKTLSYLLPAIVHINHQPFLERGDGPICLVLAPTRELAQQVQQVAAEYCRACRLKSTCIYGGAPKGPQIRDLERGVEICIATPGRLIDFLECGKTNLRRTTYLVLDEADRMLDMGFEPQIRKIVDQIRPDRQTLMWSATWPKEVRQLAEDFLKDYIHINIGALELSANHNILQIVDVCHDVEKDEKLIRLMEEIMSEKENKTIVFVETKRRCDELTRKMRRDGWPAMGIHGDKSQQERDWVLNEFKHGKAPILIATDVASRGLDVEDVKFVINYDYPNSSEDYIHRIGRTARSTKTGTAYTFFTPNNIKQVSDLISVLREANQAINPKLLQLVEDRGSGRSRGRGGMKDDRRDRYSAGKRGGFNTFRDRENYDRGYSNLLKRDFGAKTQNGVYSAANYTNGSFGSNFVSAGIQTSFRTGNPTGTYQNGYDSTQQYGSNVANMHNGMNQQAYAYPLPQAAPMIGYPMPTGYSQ
RORγt (endogenous, mouse TH17 cells) (P51450, form named): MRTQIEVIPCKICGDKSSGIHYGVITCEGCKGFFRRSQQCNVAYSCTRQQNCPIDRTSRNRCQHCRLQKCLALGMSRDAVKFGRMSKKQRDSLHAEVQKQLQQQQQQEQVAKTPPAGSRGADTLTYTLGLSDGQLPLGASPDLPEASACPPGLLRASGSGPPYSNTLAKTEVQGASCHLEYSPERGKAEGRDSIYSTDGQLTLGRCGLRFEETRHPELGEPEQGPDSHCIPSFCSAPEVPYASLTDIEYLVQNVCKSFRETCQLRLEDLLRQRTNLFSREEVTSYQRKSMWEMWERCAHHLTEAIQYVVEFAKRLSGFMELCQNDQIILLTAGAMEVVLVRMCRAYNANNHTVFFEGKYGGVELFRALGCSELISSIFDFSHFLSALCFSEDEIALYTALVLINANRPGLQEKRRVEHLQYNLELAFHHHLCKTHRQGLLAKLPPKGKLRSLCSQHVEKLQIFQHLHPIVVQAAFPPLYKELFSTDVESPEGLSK

The target in the assay is RNA helicase DEAD-box protein 5 (DDX5) (endogenous, mouse TH17 cells) (mouse) (UniProt Q61656). In words: co-immunoprecipitation with anti-DDX5, immunoblot. In general terms: In western blotting, separated proteins are transferred to a membrane and probed.

These are yes or no findings as the source states them, for the method shown. In cells and extracts the contact can be indirect. Some entries that bind do so weakly or less than the wild type.

For “RORγt (endogenous, mouse TH17 cells) (from UniProt P51450 1-495) (receptor)”, the binding result is reported as “binds”.
